Results are given in words; binding and its absence hold for the method and conditions named. Binding seen in cells or lysates may run through a third protein. Here binding means that the protein was enriched with, or labelled near, the bait; the list need not be complete. Tags and fused reporters may be left off the sequences shown.

By UniProt entry, the sequences of proteins in these tests, tags left out.
UniProt P50750: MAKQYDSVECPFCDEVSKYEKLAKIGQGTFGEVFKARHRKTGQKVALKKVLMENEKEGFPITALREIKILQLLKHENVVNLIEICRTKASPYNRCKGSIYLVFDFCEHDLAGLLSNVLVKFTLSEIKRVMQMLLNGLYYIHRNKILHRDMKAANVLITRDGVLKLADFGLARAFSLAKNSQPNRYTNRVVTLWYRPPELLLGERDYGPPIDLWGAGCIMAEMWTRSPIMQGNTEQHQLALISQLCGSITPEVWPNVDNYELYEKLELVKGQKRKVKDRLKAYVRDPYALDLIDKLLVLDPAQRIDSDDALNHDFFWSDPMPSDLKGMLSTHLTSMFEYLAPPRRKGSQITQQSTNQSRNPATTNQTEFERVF
UniProt Q13619: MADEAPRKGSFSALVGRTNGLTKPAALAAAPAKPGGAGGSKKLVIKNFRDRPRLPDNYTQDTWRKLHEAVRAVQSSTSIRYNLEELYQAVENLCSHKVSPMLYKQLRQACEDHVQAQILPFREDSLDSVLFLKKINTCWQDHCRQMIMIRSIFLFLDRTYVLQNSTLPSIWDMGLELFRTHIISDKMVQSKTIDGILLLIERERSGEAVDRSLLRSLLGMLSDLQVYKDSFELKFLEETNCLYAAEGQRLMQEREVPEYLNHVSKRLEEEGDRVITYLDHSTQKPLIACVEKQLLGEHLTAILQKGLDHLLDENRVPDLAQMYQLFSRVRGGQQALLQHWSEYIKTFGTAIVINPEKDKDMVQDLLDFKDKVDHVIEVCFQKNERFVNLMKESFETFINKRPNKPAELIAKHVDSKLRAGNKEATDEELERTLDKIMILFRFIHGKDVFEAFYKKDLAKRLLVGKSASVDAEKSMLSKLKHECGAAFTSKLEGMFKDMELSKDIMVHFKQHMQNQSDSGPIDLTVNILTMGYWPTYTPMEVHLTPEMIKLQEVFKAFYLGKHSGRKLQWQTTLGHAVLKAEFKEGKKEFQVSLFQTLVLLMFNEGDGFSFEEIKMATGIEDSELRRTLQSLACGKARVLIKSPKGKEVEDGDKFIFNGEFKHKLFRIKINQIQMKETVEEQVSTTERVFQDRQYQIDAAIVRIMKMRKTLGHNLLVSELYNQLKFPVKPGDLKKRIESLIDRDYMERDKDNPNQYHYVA
UniProt Q16531: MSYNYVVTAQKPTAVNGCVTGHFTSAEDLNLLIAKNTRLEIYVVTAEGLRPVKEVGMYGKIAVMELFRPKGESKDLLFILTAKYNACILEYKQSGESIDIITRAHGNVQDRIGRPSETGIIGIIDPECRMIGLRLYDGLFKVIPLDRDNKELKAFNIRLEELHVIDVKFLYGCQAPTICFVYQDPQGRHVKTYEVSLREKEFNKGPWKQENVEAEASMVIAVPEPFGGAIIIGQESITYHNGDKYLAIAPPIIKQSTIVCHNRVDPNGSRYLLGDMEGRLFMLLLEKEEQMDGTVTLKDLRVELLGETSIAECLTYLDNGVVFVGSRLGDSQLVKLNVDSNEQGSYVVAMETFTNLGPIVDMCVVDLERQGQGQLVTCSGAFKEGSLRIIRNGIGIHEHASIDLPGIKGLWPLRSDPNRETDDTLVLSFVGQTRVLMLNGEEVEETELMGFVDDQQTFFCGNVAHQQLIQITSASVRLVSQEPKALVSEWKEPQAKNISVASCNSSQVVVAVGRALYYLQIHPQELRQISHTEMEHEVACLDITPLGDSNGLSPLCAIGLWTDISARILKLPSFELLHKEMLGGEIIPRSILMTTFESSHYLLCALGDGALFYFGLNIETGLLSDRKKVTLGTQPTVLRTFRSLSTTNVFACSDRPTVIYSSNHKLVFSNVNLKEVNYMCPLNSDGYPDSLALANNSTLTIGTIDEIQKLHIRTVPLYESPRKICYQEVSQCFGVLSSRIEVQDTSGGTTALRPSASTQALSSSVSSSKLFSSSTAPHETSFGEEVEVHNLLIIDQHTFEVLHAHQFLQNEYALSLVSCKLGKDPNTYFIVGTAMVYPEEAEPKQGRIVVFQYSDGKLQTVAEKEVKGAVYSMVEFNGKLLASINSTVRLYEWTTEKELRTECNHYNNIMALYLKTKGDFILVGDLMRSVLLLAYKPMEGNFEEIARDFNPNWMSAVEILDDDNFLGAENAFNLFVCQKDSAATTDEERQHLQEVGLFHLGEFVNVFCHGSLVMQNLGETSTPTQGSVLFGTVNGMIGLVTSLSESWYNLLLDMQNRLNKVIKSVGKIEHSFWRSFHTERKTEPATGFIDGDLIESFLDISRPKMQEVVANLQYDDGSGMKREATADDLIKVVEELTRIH

In the test the target is T1, GFP-tagged RECQL4 (wild type) (human) (UniProt O94761).
T1 sequence: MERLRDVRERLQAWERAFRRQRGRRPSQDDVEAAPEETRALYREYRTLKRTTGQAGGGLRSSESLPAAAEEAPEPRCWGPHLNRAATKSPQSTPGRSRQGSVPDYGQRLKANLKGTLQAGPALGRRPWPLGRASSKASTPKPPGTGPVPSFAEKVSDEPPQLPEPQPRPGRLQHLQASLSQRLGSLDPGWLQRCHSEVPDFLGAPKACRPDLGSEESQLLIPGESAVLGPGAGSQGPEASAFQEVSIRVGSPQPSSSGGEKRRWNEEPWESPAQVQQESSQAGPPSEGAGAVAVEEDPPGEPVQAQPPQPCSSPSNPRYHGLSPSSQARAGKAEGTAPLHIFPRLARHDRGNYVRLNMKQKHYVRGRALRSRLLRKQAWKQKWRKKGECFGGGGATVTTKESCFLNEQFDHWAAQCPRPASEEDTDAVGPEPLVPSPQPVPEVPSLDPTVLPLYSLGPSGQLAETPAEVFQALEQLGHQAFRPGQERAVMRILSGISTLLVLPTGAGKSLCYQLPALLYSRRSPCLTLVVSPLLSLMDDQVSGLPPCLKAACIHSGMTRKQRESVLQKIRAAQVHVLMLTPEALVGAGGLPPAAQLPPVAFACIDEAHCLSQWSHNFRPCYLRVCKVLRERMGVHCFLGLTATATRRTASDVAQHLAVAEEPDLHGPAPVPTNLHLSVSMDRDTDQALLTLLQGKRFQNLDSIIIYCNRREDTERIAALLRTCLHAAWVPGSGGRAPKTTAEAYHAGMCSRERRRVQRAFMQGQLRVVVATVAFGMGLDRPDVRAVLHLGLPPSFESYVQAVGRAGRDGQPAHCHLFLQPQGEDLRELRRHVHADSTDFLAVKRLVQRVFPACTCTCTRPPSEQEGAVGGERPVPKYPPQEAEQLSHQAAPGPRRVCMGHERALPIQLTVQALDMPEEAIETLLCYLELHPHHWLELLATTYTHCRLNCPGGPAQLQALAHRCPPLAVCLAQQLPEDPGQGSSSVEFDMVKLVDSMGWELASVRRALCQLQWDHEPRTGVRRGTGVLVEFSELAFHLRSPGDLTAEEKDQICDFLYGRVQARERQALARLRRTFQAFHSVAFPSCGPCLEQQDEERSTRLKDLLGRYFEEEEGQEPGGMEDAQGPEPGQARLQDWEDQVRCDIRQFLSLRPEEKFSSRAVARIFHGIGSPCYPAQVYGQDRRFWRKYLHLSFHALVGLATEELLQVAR
The experiment in a line: affinity purification with mass spectrometry; GFP-TRAP beads on lysate of HEK293T cells expressing GFP or GFP-tagged RECQL4, with Benzonase; proteins eluted, precipitated and analysed by mass spectrometry.
On to “CDK9 (from UniProt P50750 1-372) (enzyme)”, for which the binding entry is on record as “binds”.

CUL4A (from UniProt Q13619 1-759): the binding entry was “binds”. In the case of DDB1 (from UniProt Q16531 1-1140) it was “binds”.
